Experimental findings from paper PMC10850294, “Fumarate respiration of Fasciola flukes as a potential drug target” (Frontiers in Cellular and Infection Microbiology, 2024) are described below.

Data set [1] deals with T1, Succinate-quinone reductase (complex II) of adult Fasciola flukes.
T1 construct: gene SDHB; native complex in adult fluke mitochondrial fraction (not purified); with Succinate dehydrogenase [ubiquinone] flavoprotein subunit, mitochondrial
Kind of data set: succinate-quinone reductase assay, UQ2 reduction at […] nm, mitochondrial fraction. In kind it is biochemical, Fasciola hepatica x Fasciola gigantica. The note with it: 10 mM succinate, 60 μM UQ2, 0.1% sucrose monolaurate, 1 mM KCN, pH 7.4, 25 °C, 2 min preincubation.

The subject of data set [2] is T2, NADH-quinone reductase (complex I) of adult Fasciola flukes.
T2 construct: gene NDUFS2; native complex in adult fluke mitochondrial fraction (not purified); with NADH dehydrogenase [ubiquinone] flavoprotein 1, mitochondrial; NADH dehydrogenase [ubiquinone] flavoprotein 2, mitochondrial; NADH-ubiquinone oxidoreductase 75 kDa subunit, mitochondrial
Kind of data set: NADH-quinone reductase assay, NADH oxidation at […] nm, mitochondrial fraction. In kind it is biochemical, Fasciola hepatica x Fasciola gigantica. The note with it: 50 μM NADH, 90 μM UQ2, 1 mM KCN, pH 7.4, 25 °C, 2 min preincubation.

Consider `COc1[nH]c(=O)c(C(=O)[C@@H](C)C[C@H](C)[C@@H](Cl)CCl)c(O)c1OC` [atpenin A5], for which the “Succinate-quinone reductase (complex II)” value in data set [1] (1 µM) was determined as 97.2 ± 0.80%. The “NADH-quinone reductase (complex I)” value in data set [2] (1 µM) is given as 16.1 ± 14.5%.

Regarding `CC(/C=C/[C@@]1(C)[C@H](C)CCC(=O)[C@@H]1C)=C\Cc1c(O)c(Cl)c(C)c(C=O)c1O` [ascochlorin], the “Succinate-quinone reductase (complex II)” value in data set [1] (1 µM) was 72.3 ± 1.90%. Further, the “NADH-quinone reductase (complex I)” value in data set [2] (1 µM) turned out to be 8.40 ± 2.00%.

For `C=C(C)[C@H]1Cc2c(ccc3c2O[C@@H]2COc4cc(OC)c(OC)cc4[C@@H]2C3=O)O1` [rotenone], the “Succinate-quinone reductase (complex II)” value in data set [1] (0.1 µM) amounted to 15.0 ± 8.20%. Also, the “NADH-quinone reductase (complex I)” value in data set [2] (0.1 µM) is on record as 91.0 ± 1.80%.
